Reference: PubChem BioAssay AID602196 (INSERM, 2012)

Assay: 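Modifiers of cisplatin sensitivity in A549 cells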
Cells: human A549 lung cancer cells
Reagents: siRNA pair against human genes
Timing: 48 h transfection before cisplatin; time from cisplatin to read-out not stated
Conditions: cisplatin at a dose killing half of control-siRNA cells; exact dose and duration not given
Read-out: 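Shift in cisplatin death relative to control siRNA, from -50 (all cells die) to +50 (no cells die); siRNAs harmful on their own scored 0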
Scale: two-siRNA summed score (-2 to +2): higher = both siRNAs protect from cisplatin killing; -2 means both sensitise; mean protection from cisplatin (shift in death): higher = protection from cisplatin killing
Active means: 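siRNAs harmful alone (LDH or WST-1) get 0; others get +1 for less and -1 for more cisplatin killing; genes are active when the two siRNAs give the same sign, summing to ±2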
Meaning of the calls: active = both siRNAs shift cisplatin killing the same way; inactive = no consistent shift, or siRNA harmful alone
Shown is one part, drawn at random, of about 23,000 reagents tested. 455 of all reagents (2%) count as active. 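Active includes both protection and sensitisation; some change values fall well beyond the stated -50 to +50 range.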 A number with no mark means an inactive call. The numbers tell different reagents against one gene apart. Not all columns of the deposit are shown. Not stated in the record: the amount of reagent.

Against GK2 (glycerol kinase 2), the entry reads two-siRNA summed score (-2 to +2) = 1; mean protection from cisplatin (shift in death) (%) = 10.2. OR1G1 (olfactory receptor family 1 subfamily G member 1) gave two-siRNA summed score (-2 to +2) = 0; mean protection from cisplatin (shift in death) (%) = 0.7. For PRSS33 (serine protease 33), the values are two-siRNA summed score (-2 to +2) = 0; mean protection from cisplatin (shift in death) (%) = -0.3. SLBP (stem-loop histone mRNA binding protein) scored two-siRNA summed score (-2 to +2) = 1; mean protection from cisplatin (shift in death) (%) = 7.1. Against DNAAF6 (dynein axonemal assembly factor 6), the values are two-siRNA summed score (-2 to +2) = 0; mean protection from cisplatin (shift in death) (%) = 2.1. After knock-down of LAP3 (leucine aminopeptidase 3) the results were two-siRNA summed score (-2 to +2) = 0; mean protection from cisplatin (shift in death) (%) = 13.6.

Depletion of TMEM168 (transmembrane protein 168) resulted in: two-siRNA summed score (-2 to +2) = 0; mean protection from cisplatin (shift in death) (%) = -3.3. RPL7 (ribosomal protein L7) showed two-siRNA summed score (-2 to +2) = 0; mean protection from cisplatin (shift in death) (%) = 31.7. With knock-down of HBS1L (HBS1 like translational GTPase) the results were two-siRNA summed score (-2 to +2) = 0; mean protection from cisplatin (shift in death) (%) = 0.8. DEPDC1 (DEP domain containing 1) scored two-siRNA summed score (-2 to +2) = -1; mean protection from cisplatin (shift in death) (%) = -1.5. With knock-down of LOC440606, the record shows two-siRNA summed score (-2 to +2) = 0; mean protection from cisplatin (shift in death) (%) = 13.5. Knock-down of LOC389725 resulted in: two-siRNA summed score (-2 to +2) = 1; mean protection from cisplatin (shift in death) (%) = 13.6.

Against DAZ2 (deleted in azoospermia 2) the deposit lists two-siRNA summed score (-2 to +2) = 0; mean protection from cisplatin (shift in death) (%) = 4.9. Knock-down of ATL2 (atlastin GTPase 2) came out at: two-siRNA summed score (-2 to +2) = 0; mean protection from cisplatin (shift in death) (%) = 0.1. For LOC164036 the deposit lists two-siRNA summed score (-2 to +2) = 0; mean protection from cisplatin (shift in death) (%) = 7.9. NCEH1 (neutral cholesterol ester hydrolase 1) showed two-siRNA summed score (-2 to +2) = 0; mean protection from cisplatin (shift in death) (%) = -2.7. With knock-down of PHLPP1 (PH domain and leucine rich repeat protein phosphatase 1), the record shows two-siRNA summed score (-2 to +2) = 1; mean protection from cisplatin (shift in death) (%) = 14.9. For FAM170B (family with sequence similarity 170 member B), the entry reads two-siRNA summed score (-2 to +2) = 0; mean protection from cisplatin (shift in death) (%) = 16.5.

With knock-down of LOC344787, the record shows two-siRNA summed score (-2 to +2) = 0; mean protection from cisplatin (shift in death) (%) = 0.3. Knock-down of LOC402123 resulted in: two-siRNA summed score (-2 to +2) = 2 (active); mean protection from cisplatin (shift in death) (%) = 15. Against DHRS9 (dehydrogenase/reductase 9), the entry reads two-siRNA summed score (-2 to +2) = -1; mean protection from cisplatin (shift in death) (%) = -10.7. IFT74 (intraflagellar transport 74) showed two-siRNA summed score (-2 to +2) = 0; mean protection from cisplatin (shift in death) (%) = 8.1. With knock-down of AHCYL1 (adenosylhomocysteinase like 1), the record shows two-siRNA summed score (-2 to +2) = -1; mean protection from cisplatin (shift in death) (%) = -17.5. After knock-down of DARS1 (aspartyl-tRNA synthetase 1) the results were two-siRNA summed score (-2 to +2) = 0; mean protection from cisplatin (shift in death) (%) = 4.4.

FUT7 (fucosyltransferase 7) gave two-siRNA summed score (-2 to +2) = 0; mean protection from cisplatin (shift in death) (%) = -2.7. Knock-down of LOC400301 gave: two-siRNA summed score (-2 to +2) = 0; mean protection from cisplatin (shift in death) (%) = 8.5. PTH2R (parathyroid hormone 2 receptor) scored two-siRNA summed score (-2 to +2) = 0; mean protection from cisplatin (shift in death) (%) = -0.6. With knock-down of IGSF11 (immunoglobulin superfamily member 11) #1, the screen gave two-siRNA summed score (-2 to +2) = 0; mean protection from cisplatin (shift in death) (%) = 4.6. Knock-down of IGSF11 (immunoglobulin superfamily member 11) #2 resulted in: two-siRNA summed score (-2 to +2) = 0; mean protection from cisplatin (shift in death) (%) = 5.1. USP29 (ubiquitin specific peptidase 29) gave two-siRNA summed score (-2 to +2) = 0; mean protection from cisplatin (shift in death) (%) = 6.

Silencing of MRPS25 (mitochondrial ribosomal protein S25) came out at: two-siRNA summed score (-2 to +2) = 0; mean protection from cisplatin (shift in death) (%) = 2.5.
